Reference: paper PMC11358521
These are yes or no findings as the source states them, for the method shown. In cells and extracts the contact can be indirect. Binding calls can cover weak binding; strength is not graded here.

Target: T1, heterogeneous nuclear ribonucleoprotein R (hnRNP R) (mouse (endogenous in primary motoneurons)) (UniProt Q8VHM5)
T1 sequence: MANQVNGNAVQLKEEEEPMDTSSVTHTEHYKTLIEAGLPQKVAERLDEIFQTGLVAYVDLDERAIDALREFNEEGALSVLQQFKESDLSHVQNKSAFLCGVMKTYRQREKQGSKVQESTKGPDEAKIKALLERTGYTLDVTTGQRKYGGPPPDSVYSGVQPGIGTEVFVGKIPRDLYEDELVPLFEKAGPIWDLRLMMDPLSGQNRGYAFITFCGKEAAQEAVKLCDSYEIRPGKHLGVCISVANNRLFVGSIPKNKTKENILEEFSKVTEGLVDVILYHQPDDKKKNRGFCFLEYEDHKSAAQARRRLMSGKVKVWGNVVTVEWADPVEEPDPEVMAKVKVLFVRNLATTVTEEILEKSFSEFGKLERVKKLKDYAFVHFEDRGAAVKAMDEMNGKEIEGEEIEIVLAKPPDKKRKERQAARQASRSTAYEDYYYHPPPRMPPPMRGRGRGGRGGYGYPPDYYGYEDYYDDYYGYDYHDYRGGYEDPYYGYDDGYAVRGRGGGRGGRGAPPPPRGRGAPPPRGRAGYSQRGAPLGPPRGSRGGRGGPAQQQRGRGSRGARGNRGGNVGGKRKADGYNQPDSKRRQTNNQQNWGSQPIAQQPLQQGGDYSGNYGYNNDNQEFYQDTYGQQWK
Assay: co-IP; anti-hnRNP R antibody on magnetic Dynabeads Protein A or G, whole lysate of primary mouse motoneurons (DIV 7), without or with Benzonase; lysis 10 mM HEPES pH 7.0, 100 mM KCl, 5 mM MgCl2, 0.5% NP-40; overnight at 4 °C; immunoblot

## initiation factor eIF4G
  binding: binds
